{
  "sequences": {"note": "The chains behind the UniProt entries cited, without tags or fusion partners. Where a name states a change or a piece, a line headed by the entry shows the natural chain unless it says otherwise.", "UniProt P10408": "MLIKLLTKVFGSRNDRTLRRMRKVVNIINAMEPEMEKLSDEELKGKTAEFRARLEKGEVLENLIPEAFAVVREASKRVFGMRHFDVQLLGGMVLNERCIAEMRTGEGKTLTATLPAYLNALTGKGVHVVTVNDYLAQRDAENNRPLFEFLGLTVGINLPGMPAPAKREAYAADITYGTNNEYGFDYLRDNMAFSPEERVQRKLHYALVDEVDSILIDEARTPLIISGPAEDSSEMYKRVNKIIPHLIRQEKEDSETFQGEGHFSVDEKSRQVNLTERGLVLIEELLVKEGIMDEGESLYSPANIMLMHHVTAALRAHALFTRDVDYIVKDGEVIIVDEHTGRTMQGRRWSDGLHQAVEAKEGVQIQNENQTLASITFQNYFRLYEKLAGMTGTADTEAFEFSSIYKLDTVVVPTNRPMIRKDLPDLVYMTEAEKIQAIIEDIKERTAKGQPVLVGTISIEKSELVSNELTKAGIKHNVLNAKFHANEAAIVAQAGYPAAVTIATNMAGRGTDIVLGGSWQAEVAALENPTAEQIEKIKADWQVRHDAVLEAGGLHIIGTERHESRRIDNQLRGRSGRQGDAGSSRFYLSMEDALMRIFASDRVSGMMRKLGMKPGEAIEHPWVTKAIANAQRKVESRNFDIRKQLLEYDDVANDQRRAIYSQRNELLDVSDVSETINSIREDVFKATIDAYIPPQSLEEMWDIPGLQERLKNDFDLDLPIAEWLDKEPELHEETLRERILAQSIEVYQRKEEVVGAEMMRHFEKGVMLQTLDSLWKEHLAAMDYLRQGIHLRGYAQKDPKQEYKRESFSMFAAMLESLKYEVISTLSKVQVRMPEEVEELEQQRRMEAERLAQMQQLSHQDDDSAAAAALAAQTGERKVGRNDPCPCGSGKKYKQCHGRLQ"},
  "source": "paper PMC3029384",
  "about": "“Dimeric SecA Couples the Preprotein Translocation in an Asymmetric Manner” (PLoS ONE, 2011)",
  "key": {"[1]": {"biological_target": "T1, His6-tagged SecB (Escherichia coli, UniProt P0AG86 1-153)", "T1 construct": "SecB chaperone, Escherichia coli; The tag is named explicitly only in Materials and for the SecB/proOmpA assembly; also called SecB tetramer; tetrameric SecB", "T1 sequence": "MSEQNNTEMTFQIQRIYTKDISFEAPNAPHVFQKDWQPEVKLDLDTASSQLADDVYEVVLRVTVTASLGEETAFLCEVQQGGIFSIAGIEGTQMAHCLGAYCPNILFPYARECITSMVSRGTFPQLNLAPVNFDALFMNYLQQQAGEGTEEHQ", "experiment": "SEC; SecA monomer 3 uM and SecB monomer 30 uM incubated 1 h at 4 °C in buffer A (20 mM HEPES-KOH, 30 mM KCl, 1 mM DTT, pH 7.4); Superdex G200 analytical column at 4 °C; peak fraction checked by SDS-PAGE; both purified"}, "[2]": {"biological_target": "T1, His6-tagged SecB", "experiment": "negative-stain electron microscopy, single-particle 3D reconstruction; SecA/proOmpA/SecB complex, 1% uranyl acetate; 24 Å reconstruction from 2,704 particles after multi-model refinement, no symmetry; crystal structures docked into the map; both purified"}},
  "note": "These are yes or no findings as the source states them, for the method shown. A result given as binding can be weak or reduced; the word gives no strength.",
  "data": [
    {"substance": "SecA (from UniProt P10408) (enzyme)", "values": [
      {"measurement": "binding", "setting": "[1]", "result": "binds"},
      {"measurement": "binding", "setting": "[2]", "result": "binds"}
    ]}
  ]
}
